± gives the half width of the 95% confidence interval. For many entries, trypsin and chymotrypsin gave values far apart.
How the values were obtained:
[1] = folding stability dG unfold (combined trypsin and chymotrypsin); higher = more stable
Procedure, shortened: (§1)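 Only designs with AlphaFold2 dimer inter-PAE above 15 were retained; each was a mini-protein under 80 residues with no cysteine, in a PA-tagged cDNA display construct. After digestion with trypsin and chymotrypsin and sequencing, K50 was inferred by Bayesian fitting of counts, and unfolding free energy was derived per protease or combined against a sequence-predicted unfolded-state K50 and a shared folded-state K50.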

[2] = folding stability dG unfold from trypsin proteolysis; higher = more stable
Procedure, shortened: as §1

[3] = folding stability dG unfold from chymotrypsin proteolysis; higher = more stable
Procedure, shortened: as §1

Sequence | folding stability dG unfold [1] [kcal/mol] | folding stability dG unfold [2] [kcal/mol] | folding stability dG unfold [3] [kcal/mol]
SAGGEVTLVLRAESAEEAKAAAEALKALFPDVEVTVEYDEETKEVTVTIKLKPPPPLTEEELEKLKKSAGGS [r16_674_TrROS_Hall] | 2.93 ± 0.41 | 0.257 ± 0.36 | 3.44 ± 0.22
SAGGETVTIEIKLEDGKTIRITYTKNPETGEYTVTVTIVDKETKEVVKTYTFTSLEEAEKAIKEGLLSAGGS [r8_450_TrROS_Hall] | 5.66 ± 0.16 | 3.39 ± 0.13 | 5.68 ± 0.091
SAGGSAGGSAGVVVKKPGTDVVYEITEEPGSYKVTITDPKTGTTKEFTVSPEVSIESLLLSAGGSAGGSAGG [r11_772_JUSTAS] | 1.15 ± 0.14 | 1.22 ± 0.092 | 0.757 ± 0.13
SAGGSAGGSAGKVTLTIPFTNEDGTKYIAEFTFDELEVEEDVEIKIVSLGENFDLVLKPESAGGSAGGSAGG [r11_733_TrMRF] | 1.63 ± 0.1 | 1.47 ± 0.069 | 1.67 ± 0.041
SGMSMAKDAKPIYIEYRDPNGKSYRVTEVKVNEDGTLTITIEYPDSIKTYTLPPNANYPLSSSLILSTVESA [r9_993_JUSTAS] | 1.45 ± 0.14 | 1.4 ± 0.076 | 1.43 ± 0.13
SAGMELVEVTYLPNGTYVVTVKEGSKTTSKTVAPGETFEVPGGLRITVVEPGKYTVSPIPPGPVDVRRSAGG [r19_17_JUSTAS] | 0.982 ± 0.032 | -1.16 ± 0.21 | 1.48 ± 0.026
SAGGSAGGKQPIEITIMFRLENGYFIMIVLKIEINPGTGQFKIDILDIYIFKSPNGKWVPLDDFSAGGSAGG [r6_866_TrROS] | 4.98 ± 0.18 | 2.75 ± 0.13 | 5.12 ± 0.06
SAGGSAGGSAGMKVAVLTIPENGKPVLVVELPDGGALAFDPDTDAVFLLDDDKIYYLGPASAGGSAGGSAGG [r17_476_TrMRF] | 1.13 ± 0.075 | 0.0117 ± 0.033 | 1.52 ± 0.059
SAGGSAGGSAGGGMIPVSTSETVVPGPSRLVRRTTTTYRDPVTGKLYTTSSTTVLPPAASAGGSAGGSAGGS [r10_190_JUSTAS] | 0.963 ± 0.045 | -0.396 ± 0.12 | 1.44 ± 0.064
SAGGMLVVKIEVENKDGKKETIEIDLSKLSEEEIKKLLKELEKKGYKVKVEIKPALSEEELKKLKEKKSAGG [r13_251_TrROS_Hall] | 2.25 ± 0.4 | 0.193 ± 0.17 | 2.78 ± 0.099
SAGGSAGGSAGEAVLVSTPDGRLVLLVRFPDYVLAVVFDPGGRPRLYRIDPKTGRVELLPSAGGSAGGSAGG [r11_590_TrMRF] | 3.99 ± 0.06 | 2.18 ± 0.045 | 4.395 ± 0.036
SEEEIYVVEIKVKVKNENGEERTFTISVPLEEMTEEELRELLRELFPDVEEVEIEVKVTPIKLSEEEIEKSA [r9_841_TrROS_Hall] | 3.48 ± 0.28 | 1.59 ± 0.1 | 4.08 ± 0.16
SAGGSGTESKEYPDSKVTVTPVPLPLGDGAPVLRVTTVPKLPNGEPVTTVTLVDPDSDVVVTEETLSAGGSA [r2_484_JUSTAS] | 0.598 ± 0.044 | -0.0208 ± 0.028 | 0.925 ± 0.012
SAGGSKTVTVTVRIKVTNEDGEELTVTARLTYNEETGEVTVEIEMSPEALERLRELFPDVKIEIYPSAGGSA [r2_409_TrROS_Hall] | 3.9 ± 0.32 | 4.08 ± 0.22 | 3.09 ± 0.13
SKEKKTVTITLVLKVEDPEKLKPGDKVELSPELIEELKKAGFKITEIKVTVVKNEDGSLYVVVELKVELESA [r9_465_TrROS_Hall] | 3.79 ± 0.14 | 1.95 ± 0.21 | 4.07 ± 0.15
SAAAAVAAAVAATLEALLPPGYRITAVTAEVAPDGTVTIPVTVEGPDGVPTLVVVTVDLATGEITVTVFGSA [r9_219_TrMRF] | 4.22 ± 0.22 | 3.17 ± 0.16 | 4.63 ± 0.21
SAGGSAGGSAGKKYKIKVEVNGKLFEVEVSEDVKPGDVIKIEVDGKIIEVPAKNVKVEKVSAGGSAGGSAGG [r11_247_TrROS_Hall] | 2.82 ± 0.16 | 1.1 ± 0.067 | 3.24 ± 0.12
SAGMVLLTVPAEEMTEEEAEAIAETIEKAFPFLRIKSAEELVVPAPDDRPVRMRVLLIDAELPLPPELLSAG [r5_835_TrMRF] | 1.43 ± 0.096 | 0.116 ± 0.17 | 2.21 ± 0.078
SAGGSAGGSMELVIPKEEVEKMSEEVVKKIKELAKKANISISETEDSLVIPIKKVSEKVIKELSAGGSAGGS [r12_945_JUSTAS] | 0.232 ± 0.1 | -0.325 ± 0.075 | 0.497 ± 0.045
SAMTPEFFETIKEASREGDIAAVLEAAEAIKTEFPDTGLTVDVVIEPREDDRFVIEVRVDYPPNLEGLASAG [r14_690_TrMRF] | -0.0704 ± 0.18 | -0.142 ± 0.039 | -0.212 ± 0.11
SKTYLVKVTIEYGGKTIEIEVEVETLEEALAAVRAALPPEERAQLPPDAKVTVEVYELPEVDEETGELLESA [r9_111_TrROS_Hall] | 3.84 ± 0.059 | 2.83 ± 0.07 | 4.2 ± 0.048

Sequence | folding stability dG unfold [1] [kcal/mol] | folding stability dG unfold [2] [kcal/mol] | folding stability dG unfold [3] [kcal/mol]
SAGGSAGGSAGGGSMTLELPLPEWSEEEIEALAEELKKKGLKVKEIERDPESDVVRITVESAGGSAGGSAGG [r7_906_JUSTAS] | 2.15 ± 0.11 | 1.79 ± 0.1 | 2.28 ± 0.078
SAGGSAGGAKVVKPPVTVTLVMKFETEEEARAAAEELRKKYNVTVEISPDGKYVRITVTLPPLPSAGGSAGG [r6_90_TrROS_Hall] | 4 ± 0.14 | 1.59 ± 0.029 | 4.44 ± 0.12
SAGGMILVEENGRLYLVEVKVEMKVERDPEVPGEFRMEIRVEIRVREIPLEEIKPLPPPHPDDPENKSAGGS [r16_395_TrROS_Hall] | 3.94 ± 0.35 | 2.19 ± 0.12 | 4.71 ± 0.36
SAGGSAYKITVTWWVKSAEEAVDEIRSIARSWGMEIENIEIEWNPPNGWYWVEYTIEIKPPPPGQLSAGGSA [r15_254_TrROS] | 3.65 ± 0.2 | 2.83 ± 0.081 | 4.98 ± 0.15
SAGGSAGGSAGGGPPTFILKTEVETFTLKKVSKSGDKLVFSESEVTVVTVTLVPENDAPSAGGSAGGSAGGS [r10_300_TrMRF] | 4.41 ± 0.37 | 2.69 ± 0.11 | 4.9 ± 0.46
SAKKVIIFFRSPEELIDQIKEAASNGEPVEVMFNDPGGYYWHITIEVPPKNGKIKIDEIEPKPISDDDFSAG [r14_455_TrROS] | 3.18 ± 0.31 | 1.63 ± 0.074 | 4.01 ± 0.12
SAGGSAGGSAGGYFIRINNGRTFPFPSPEDAEEIVKTIARPFGHPDMTIEIYRMPPEQFPSAGGSAGGSAGG [r7_839_TrROS] | 0.0194 ± 0.18 | -0.0675 ± 0.22 | -0.1 ± 0.24
SAGGLNIVKAEITKIEVTENGIKLTVVADVPNGLKIIAVFEIPAGNPNIPILKEVKLVYVPPELAGKSAGGS [r16_161_TrMRF] | 3.2 ± 0.094 | 1.38 ± 0.057 | 3.64 ± 0.039
SAEEKPERTVTVTLTLTETRTVTKNENGEETTVTETRTLTLTLTVTVPEDEELRKKAEELAKELLEALSSAG [r14_223_TrROS_Hall] | > 6 | 3.34 ± 0.16 | 5.42 ± 0.41
SAGGSAGGSAGDLPPGQILMFQIEIEMTHEVYNPDNGKKVHEHDVKIPIWIIFVLPPDMPSAGGSAGGSAGG [r11_970_TrROS] | 4.4 ± 0.15 | 2.72 ± 0.15 | 4.83 ± 0.15
SAGMIEINNVTPNYVMIKIWNPDNGKKWEIPIQYERDNGKPYSKDKALEEIKDIAKEFYPDFDIEVEPVSAG [r5_293_TrROS] | 0.41 ± 0.25 | 0.0269 ± 0.15 | 0.727 ± 0.14
SAGGSAKKPKVKKIVLTVKDKETNETYTITITKNEDGSISITVTSKNGKKLSKEEIEKLLKKLGIESAGGSA [r15_872_TrROS_Hall] | 3.58 ± 0.18 | 1.83 ± 0.11 | 3.93 ± 0.15
SAGGSAMVSLEEAKEATLREVKAALGFSPDATPEELRARGVPVRVPITVRDEKGNVIAELELELPGSAGGSA [r15_391_JUSTAS] | 0.37 ± 0.039 | -0.118 ± 0.04 | 0.571 ± 0.046
SAGGSAGGSAKTVVINIKDLKLSKDGKLTVEEIKKRIKELLKKKGIKKVTVKTVEELLKALKSAGGSAGGSA [r18_72_TrROS_Hall] | 1.26 ± 0.074 | 0.898 ± 0.062 | 1.41 ± 0.086
SAGGSAGGSMKVKTIELNGKTVELVEVDGKLILRVRDKDTGKEYLLVFDAETGEWKIVSLEDLSAGGSAGGS [r12_632_TrROS_Hall] | 3.61 ± 0.13 | 1.95 ± 0.068 | 4.13 ± 0.072
SAGGSAPNKWKTVDIEFMFPPDNLEEFVDEISKLPGIKASIEPVEYDPEGMYWMKIDITIPPGMKISAGGSA [r15_441_TrROS] | 1.64 ± 0.21 | 1.16 ± 0.048 | 1.74 ± 0.12
SAGMKVTVLKTENLGDTTVTYYKIEKPDGGKDLLGVATYDPATGTTTVTIYDPSNGKKVSEPVIPVEPASAG [r5_440_JUSTAS] | 2.28 ± 0.053 | 0.61 ± 0.032 | 2.7 ± 0.044
SAKIEIYTHPDGMMEITFELDGRKITITMNPKEGWMMVEVYDPPNGEVVKTIPIPMGDLEDTIKEIIDKSAG [r14_583_TrROS] | 3.77 ± 0.53 | 2.03 ± 0.17 | 4.35 ± 0.23
SAGGSAGGSAGAPELAPLPRVVPRFILVNASPELAPELAERFGADRVIFLPDGSLLIFTTSAGGSAGGSAGG [r11_64_TrMRF] | 1.51 ± 0.026 | -0.132 ± 0.031 | 1.981 ± 0.019
SAGGSLPELGIEARTVETVEEPNDPNKSTTYLYEVKLPDGSRILITVTKNPGGDVSEEVEVIPPEELSAGGS [r8_216_JUSTAS] | 1.19 ± 0.13 | -1.1 ± 0.7 | 1.74 ± 0.037

Fetched one by one from above (2):
Sequence | folding stability dG unfold [1] [kcal/mol] | folding stability dG unfold [2] [kcal/mol] | folding stability dG unfold [3] [kcal/mol]
SAGGSAGGSAKTVVINIKDLKLSKDGKLTVEEIKKRIKELLKKKGIKKVTVKTVEELLKALKSAGGSAGGSA [r18_72_TrROS_Hall] | 1.26 ± 0.074 | 0.898 ± 0.062 | 1.41 ± 0.086
SAGGMILVEENGRLYLVEVKVEMKVERDPEVPGEFRMEIRVEIRVREIPLEEIKPLPPPHPDDPENKSAGGS [r16_395_TrROS_Hall] | 3.94 ± 0.35 | 2.19 ± 0.12 | 4.71 ± 0.36

— the supplement of paper PMC12764529
